Measurements taken from article doi:10.1101/142943.
Results are given in words; binding and its absence hold for the method and conditions named. In cells and extracts the contact can be indirect. Binding can be weak; no strength is given.

Target: MITF-HA (UniProt O75030)
Assay: co-IP

In the case of OCT4-Flag (from UniProt Q01860 1-360), the binding is reported as “binds”.
